PubChem BioAssay AID1671190 (National Center for Advancing Translational Sciences (NCATS), 2021)
Among all 580,000 compounds or so, about 6,100 (1.1%) were called active. Inconclusive results, whose numbers are uncertain, are shown with a selection of clear calls. The call rests on the fitted dose curve; in most records, active means well fitted inhibition curve with a large enough effect; inconclusive means small, poorly fitted or top-dose-only effect, or another doubt; inactive means no such curve, though single readings can be large or run the other way. Where the call is inconclusive, the potency comes from a doubtful curve fit.

The chains behind the UniProt entries cited, without tags or fusion partners. Where a name states a change or a piece, a line headed by the entry shows the natural chain unless it says otherwise.
UniProt P18054: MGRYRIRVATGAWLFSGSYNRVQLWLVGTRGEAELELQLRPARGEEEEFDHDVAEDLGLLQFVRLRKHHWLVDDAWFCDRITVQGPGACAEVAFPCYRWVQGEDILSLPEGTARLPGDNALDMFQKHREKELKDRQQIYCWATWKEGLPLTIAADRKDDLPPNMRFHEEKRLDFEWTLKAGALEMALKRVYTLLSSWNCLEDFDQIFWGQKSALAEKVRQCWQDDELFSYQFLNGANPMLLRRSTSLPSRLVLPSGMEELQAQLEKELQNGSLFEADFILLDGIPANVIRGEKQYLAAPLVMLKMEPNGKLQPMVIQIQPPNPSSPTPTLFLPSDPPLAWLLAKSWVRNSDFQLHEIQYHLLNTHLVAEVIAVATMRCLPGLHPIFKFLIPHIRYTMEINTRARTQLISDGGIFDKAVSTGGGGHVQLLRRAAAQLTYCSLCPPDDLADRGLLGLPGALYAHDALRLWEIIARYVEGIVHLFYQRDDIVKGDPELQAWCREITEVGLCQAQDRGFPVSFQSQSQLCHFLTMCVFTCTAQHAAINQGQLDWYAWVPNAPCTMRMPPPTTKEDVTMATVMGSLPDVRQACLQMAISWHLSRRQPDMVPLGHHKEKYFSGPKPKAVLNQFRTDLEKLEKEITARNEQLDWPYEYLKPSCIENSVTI

target: Polyunsaturated fatty acid lipoxygenase ALOX12 (Homo sapiens) (UniProt P18054); assay: Primary qHTS assay for inhibitors of human arachidonate 12S-lipoxygenase (ALOX12): Round 2; conditions: purified 12hLO, xylenol orange hydroperoxide absorbance; activity change, negative = inhibition: at 108 µM (top of the series) unless noted
In short: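 Hydroperoxide product was detected by ferrous iron/xylenol orange as the 573 to 405 nm absorbance ratio. Arachidonic acid at 40 uM (final) was turned over for 30 min at room temperature by 150 nM human 12hLO, pH 7.0 Hepes buffer, after 15 min compound preincubation.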
On the % scale 0 is the no-effect control and ±100 the full control effect; potency means the concentration at half of the fitted maximal effect.

Structure (SMILES)	activity change, negative = inhibition	Potency
O=c1[nH]c(=O)n(C2C[C@H](O)[C@@H](CO)O2)cc1C(F)(F)F (some centres not stated)	inactive: -1.5%	–
CSCCC(NC(=O)c1ccco1)C(=O)OCC(=O)N(Cc1ccccc1)C(C)(C)C (configuration not stated)	–	inconclusive: 50.1 µM [inhibitor, partial curve, poor fit]
Clc1ccc(OCCOCCN2CCCCC2)c(Br)c1	–	inconclusive: 0.112 µM [inhibitor, full curve, poor fit]
CCOC(=O)c1ccc(NC(=O)c2ccc(CN3CCc4ccccc4C3)cc2)cc1	–	inconclusive: 79.4 µM [inhibitor, partial curve, poor fit]
CCN1CCN(c2cc(C)c3cc(NC(=O)CC4CCCCC4)ccc3n2)CC1	–	inconclusive: 25.1 µM [inhibitor, full curve]
O=C(NCc1ccccc1)C(=O)NCC(c1ccco1)N1CCN(c2ccccc2F)CC1 (configuration not stated)	inactive: -0.908%	–
COCCNc1oc(-c2ccc(S(=O)(=O)N3CCCCCC3)cc2)nc1C#N	inactive: -2.49%	–
COc1ccc(/C=C(/NC(=O)c2ccccc2)C(=O)NC(Cc2c[nH]c3ccccc23)C(=O)O)cc1 (configuration not stated)	–	inconclusive: 39.8 µM [inhibitor, partial curve, poor fit]
CCc1cc2c3c(c(=O)oc2cc1O)CCCC3	inactive: 32.4%	–
COc1ccc(NC(=O)c2cc3cccc(OC)c3oc2=Nc2ccc(C(=O)O)cc2)cc1OC	inactive: -2.5%	–
FC(F)(F)c1ccc(/C=N/n2c(COc3ccccc3)n[nH]c2=S)cc1	–	inconclusive: 39.8 µM [inhibitor, partial curve, poor fit]
COc1ccc(-c2nc(SCC(=O)NC3CCCCC3)n[nH]2)cc1	inactive: -12.9%	–
CCN(CC)C(=O)CC(c1cc(OC)c(OC)c(OC)c1)c1c(OC)cc(OC)c2ccc(=O)oc12 (configuration not stated)	inactive: 33.4%	–
CCOC(=O)NNC(=S)Nc1c(C)n(C)n(-c2ccccc2)c1=O	–	inconclusive: 141 µM [inhibitor, single point]
COc1cccc(-c2noc(-c3ccc(CSCc4ccccc4F)o3)n2)c1OC	inactive: -4.17%	–
O=C(O)CCCN1C(=O)C(=O)/C(=C(/O)c2ccccc2)C1/C=C/c1ccccc1 (configuration not stated)	–	inconclusive: 28.2 µM [inhibitor, partial curve, poor fit]
Cc1ccc(NC(=O)C2Cc3ccc(C)cc3S2)cc1 (configuration not stated)	–	inconclusive: 44.7 µM [inhibitor, partial curve, poor fit]
Cc1cccnc1C(NC(=O)C1CCN(CCCOc2ccccc2)CC1)c1ccc(F)cc1 (configuration not stated)	–	inconclusive: 44.7 µM [inhibitor, partial curve, poor fit]
O=C(Nc1cccnc1)Nc1ccc(Cl)cc1Cl	–	active: 25.1 µM
Cc1ccc(NC(=S)N/N=C2/CCCc3c(C)cc(C)cc32)cc1	–	inconclusive: 79.4 µM [inhibitor, single point]
Cc1ccc(-c2ccc(CCC(=O)O)n2-c2ccc(C(C)C)cc2)cc1	–	inconclusive: 56.2 µM [inhibitor, partial curve, poor fit]
COc1ccc(-c2ccc3c(c2)C(=O)N2C[C@H](O)C[C@H]2C(=O)N3)cc1	inactive: 102% [at 176 µM]	–
Cc1cnc(C(=O)OC(C)C(=O)c2ccc(C(C)(C)C)cc2)cn1 (configuration not stated)	–	inconclusive: 44.7 µM [inhibitor, partial curve, poor fit]

Structure (SMILES)	activity change, negative = inhibition	Potency
CCC(C)Nc1nc(-c2c[nH]c3ccccc23)cs1 (configuration not stated)	–	active: 50.1 µM
Cc1c(O)ccc2c(CN3CCCCC3)cc(=O)oc12	–	inconclusive: 39.8 µM [inhibitor, partial curve]
CC(C)c1ccc(/C=C2\SC(=S)N(CC(=O)NCCCN3CCOCC3)C2=O)cc1	–	inconclusive: 39.8 µM [inhibitor, partial curve, poor fit]
COc1ccccc1-c1sc2ccccc2c1-c1ccccc1OC	inactive: 9.73%	–
CC1CCc2noc(NC(=O)COc3ccc(C(C)C)cc3)c2C1 (configuration not stated)	–	inconclusive: 56.2 µM [inhibitor, partial curve, poor fit]
CCNC(=O)N1CCC(Cc2ccc(C(=O)Nc3cccc(F)c3)cc2)CC1	inactive: 16.7%	–
O=C(CSc1ccc(Cl)cc1)Nc1ccc(-c2nc3ccccc3[nH]2)cc1	inactive: -5.08%	–
Cc1cccc(C(=O)NC2CCN(C(=O)NCc3ccccc3)CC2)c1	–	inconclusive: 44.7 µM [inhibitor, partial curve, poor fit]
Cc1ccnc(NC(=O)c2ccc(NC(=O)CC3SC(N4CCCC4)=NC3=O)cc2)c1 (configuration not stated)	inactive: -4.17%	–
O=C(c1ccco1)N1CCC2(CCCN(C(c3ccccc3)c3ccccc3)C2)CC1	–	inconclusive: 28.2 µM [inhibitor, single point]
CNC(=O)N1CCC(C2CCN(C(=O)CCC3CCCC3)C2)CC1 (configuration not stated)	inactive: 50.9%	–
Cc1ccccc1Nc1nc(NC2CCCC2)nc2c1cnn2C	inactive: -11.6%	–
CC1Cc2ccccc2N1C(=O)/C=C/c1cccc(F)c1 (configuration not stated)	inactive: -0.558%	–
COC(=O)C[C@H]1c2cc(F)cc(F)c2S(=O)(=O)N1C1CCN(Cc2ccccc2)CC1	–	inconclusive: 44.7 µM [inhibitor, partial curve, poor fit]
COc1ccc(-n2c(=O)c(C)nc3cnc(OC)nc32)cc1	–	inconclusive: 35.5 µM [inhibitor, single point]
O=C(CCCC(=O)OCC(=O)c1cccs1)Nc1ccc(Oc2ccccc2)cc1	inactive: 18.2%	–
Cc1cccc(N2CCN(C(=O)CSc3ccc4c(c3)OCCO4)CC2)c1C	–	inconclusive: 44.7 µM [inhibitor, partial curve, poor fit]
COc1ccc(-c2cnc3c(NC=O)cc(-c4ccoc4)cn23)cc1OC	–	active: 5.01 µM
CCc1nc2c(OCc3ccccc3)cccn2c1N(C)C(=O)c1ccc(OC)cc1	–	inconclusive: 79.4 µM [inhibitor, single point]
COc1ccc(C)cc1Nc1nc(N)c(C(=O)c2ccc(Br)cc2)s1	–	inconclusive: 10 µM [inhibitor, full curve]
O=C1NC(Cc2ccc(O)cc2)c2nc3cc(Cl)ccc3c(=O)n2-c2cc(Cl)ccc21 (configuration not stated)	–	inconclusive: 39.8 µM [inhibitor, partial curve, poor fit]
O=C(COC(=O)c1ccc(Br)o1)NC1CCCc2ccccc21 (configuration not stated)	–	inconclusive: 126 µM [inhibitor, partial curve, poor fit]
CC(=O)c1cccc(NC(=O)CNC(=O)c2sc3ccccc3c2Cl)c1	–	inconclusive: 50.1 µM [inhibitor, partial curve, poor fit]

Structure (SMILES)	activity change, negative = inhibition	Potency
O=C(Nc1nnc(C(F)(F)F)s1)C1COc2ccccc2O1 (configuration not stated)	–	inconclusive: 70.8 µM [inhibitor, partial curve, poor fit]
COc1ccc(C2=C(O)C(=O)N(Cc3ccccn3)C2c2ccccc2F)cc1 (configuration not stated)	–	inconclusive: 1 µM [inhibitor, partial curve, poor fit]
Cc1ccc(OCc2n[nH]c(=S)n2C2CCCCC2)cc1	–	inconclusive: 25.1 µM [inhibitor, partial curve, poor fit]
Cc1ccc(C(=O)Nn2c(N)c(S(=O)(=O)c3ccc(C)cc3)c3nc4ccccc4nc32)cc1	–	inconclusive: 35.5 µM [inhibitor, partial curve]
COc1ccc(CNC(=S)Nc2ccc(Br)cc2)cc1	–	inconclusive: 35.5 µM [inhibitor, partial curve, poor fit]
COc1cccc(C(C)(O)c2nc(-c3ccc(C)c(C)c3)cs2)c1 (configuration not stated)	–	inconclusive: 44.7 µM [inhibitor, partial curve, poor fit]
CCCCNC(=S)Nc1ccc2[nH]c(=O)[nH]c2c1	–	inconclusive: 50.1 µM [inhibitor, partial curve, poor fit]
Cn1c(=O)c2c(ncn2CC(=O)Nc2ccc(Br)cc2)n(C)c1=O	–	inconclusive: 112 µM [inhibitor, single point]
Cc1cc(C(=O)CS(=O)(=O)c2ccc(Cl)cc2)cc(C)c1O	–	inconclusive: 44.7 µM [inhibitor, partial curve, poor fit]
CCOC(=O)c1ccccc1	inactive: 4.47% [at 176 µM]	–
Cc1ccc(OCCCCNC(C)(C)C)c([N+](=O)[O-])c1	–	inconclusive: 0.282 µM [inhibitor, full curve, poor fit]
COc1ccc(OC)c(N/C(C)=C/C(=O)c2ccccc2)c1	–	inconclusive: 8.91 µM [inhibitor, full curve, poor fit]
CC1CCCN(C(=O)C2CCN(CC(C)c3ccccc3)CC2)C1 (configuration not stated)	inactive: -14.6%	–
Nc1ccc(S(=O)(=O)Nc2nccc(/C=C/c3ccc(Br)s3)n2)cc1	–	inconclusive: 44.7 µM [inhibitor, partial curve, poor fit]
O=C(c1cccs1)N(Cc1ccc2cc[nH]c2c1)C1CC1	–	inconclusive: 39.8 µM [inhibitor, partial curve, poor fit]
CCOc1ccc(CNn2cnnc2)cc1	inactive: 14.4%	–
CC1Cc2ccccc2N1C(=O)CN1CCN(Cc2ccccc2)CC1 (configuration not stated)	–	inconclusive: 0.794 µM [inhibitor, full curve]
O=[N+]([O-])c1ccc(Nc2c3ccccc3nc3ccccc23)cc1	–	inconclusive: 50.1 µM [inhibitor, partial curve]
O=C(O)c1cn(C2CCCCC2)c2ccccc2c1=O	–	inconclusive: 50.1 µM [inhibitor, partial curve, poor fit]
COc1cccc(-c2cncnc2Nc2ccc(F)cc2)c1	–	inconclusive: 31.6 µM [inhibitor, partial curve, poor fit]
NS(=O)(=O)c1cccc(NC(=O)c2ccccc2NS(=O)(=O)c2ccc(F)cc2)c1	–	inconclusive: 70.8 µM [inhibitor, single point]

19 successive entries already listed, for reference:
Structure (SMILES)	activity change, negative = inhibition	Potency
O=C(c1ccco1)N1CCC2(CCCN(C(c3ccccc3)c3ccccc3)C2)CC1	–	inconclusive: 28.2 µM [inhibitor, single point]
CNC(=O)N1CCC(C2CCN(C(=O)CCC3CCCC3)C2)CC1 (configuration not stated)	inactive: 50.9%	–
Cc1ccccc1Nc1nc(NC2CCCC2)nc2c1cnn2C	inactive: -11.6%	–
CC1Cc2ccccc2N1C(=O)/C=C/c1cccc(F)c1 (configuration not stated)	inactive: -0.558%	–
COC(=O)C[C@H]1c2cc(F)cc(F)c2S(=O)(=O)N1C1CCN(Cc2ccccc2)CC1	–	inconclusive: 44.7 µM [inhibitor, partial curve, poor fit]
COc1ccc(-n2c(=O)c(C)nc3cnc(OC)nc32)cc1	–	inconclusive: 35.5 µM [inhibitor, single point]
O=C(CCCC(=O)OCC(=O)c1cccs1)Nc1ccc(Oc2ccccc2)cc1	inactive: 18.2%	–
Cc1cccc(N2CCN(C(=O)CSc3ccc4c(c3)OCCO4)CC2)c1C	–	inconclusive: 44.7 µM [inhibitor, partial curve, poor fit]
COc1ccc(-c2cnc3c(NC=O)cc(-c4ccoc4)cn23)cc1OC	–	active: 5.01 µM
CCc1nc2c(OCc3ccccc3)cccn2c1N(C)C(=O)c1ccc(OC)cc1	–	inconclusive: 79.4 µM [inhibitor, single point]
COc1ccc(C)cc1Nc1nc(N)c(C(=O)c2ccc(Br)cc2)s1	–	inconclusive: 10 µM [inhibitor, full curve]
O=C1NC(Cc2ccc(O)cc2)c2nc3cc(Cl)ccc3c(=O)n2-c2cc(Cl)ccc21 (configuration not stated)	–	inconclusive: 39.8 µM [inhibitor, partial curve, poor fit]
O=C(COC(=O)c1ccc(Br)o1)NC1CCCc2ccccc21 (configuration not stated)	–	inconclusive: 126 µM [inhibitor, partial curve, poor fit]
CC(=O)c1cccc(NC(=O)CNC(=O)c2sc3ccccc3c2Cl)c1	–	inconclusive: 50.1 µM [inhibitor, partial curve, poor fit]
O=C(Nc1nnc(C(F)(F)F)s1)C1COc2ccccc2O1 (configuration not stated)	–	inconclusive: 70.8 µM [inhibitor, partial curve, poor fit]
COc1ccc(C2=C(O)C(=O)N(Cc3ccccn3)C2c2ccccc2F)cc1 (configuration not stated)	–	inconclusive: 1 µM [inhibitor, partial curve, poor fit]
Cc1ccc(OCc2n[nH]c(=S)n2C2CCCCC2)cc1	–	inconclusive: 25.1 µM [inhibitor, partial curve, poor fit]
Cc1ccc(C(=O)Nn2c(N)c(S(=O)(=O)c3ccc(C)cc3)c3nc4ccccc4nc32)cc1	–	inconclusive: 35.5 µM [inhibitor, partial curve]
COc1ccc(CNC(=S)Nc2ccc(Br)cc2)cc1	–	inconclusive: 35.5 µM [inhibitor, partial curve, poor fit]
